Measurements: the supplement of paper PMC10849652
The list shows a part of the results. Residues, ends and D or L forms follow the SMILES beside them. *: point of attachment. Cbz = O=C(OCc1ccccc1)*

Chains of the proteins cited; added tags and fusions are not shown. Lines headed by an entry give the natural chain unless they say otherwise; changes in a name come on top.
UniProt O60934: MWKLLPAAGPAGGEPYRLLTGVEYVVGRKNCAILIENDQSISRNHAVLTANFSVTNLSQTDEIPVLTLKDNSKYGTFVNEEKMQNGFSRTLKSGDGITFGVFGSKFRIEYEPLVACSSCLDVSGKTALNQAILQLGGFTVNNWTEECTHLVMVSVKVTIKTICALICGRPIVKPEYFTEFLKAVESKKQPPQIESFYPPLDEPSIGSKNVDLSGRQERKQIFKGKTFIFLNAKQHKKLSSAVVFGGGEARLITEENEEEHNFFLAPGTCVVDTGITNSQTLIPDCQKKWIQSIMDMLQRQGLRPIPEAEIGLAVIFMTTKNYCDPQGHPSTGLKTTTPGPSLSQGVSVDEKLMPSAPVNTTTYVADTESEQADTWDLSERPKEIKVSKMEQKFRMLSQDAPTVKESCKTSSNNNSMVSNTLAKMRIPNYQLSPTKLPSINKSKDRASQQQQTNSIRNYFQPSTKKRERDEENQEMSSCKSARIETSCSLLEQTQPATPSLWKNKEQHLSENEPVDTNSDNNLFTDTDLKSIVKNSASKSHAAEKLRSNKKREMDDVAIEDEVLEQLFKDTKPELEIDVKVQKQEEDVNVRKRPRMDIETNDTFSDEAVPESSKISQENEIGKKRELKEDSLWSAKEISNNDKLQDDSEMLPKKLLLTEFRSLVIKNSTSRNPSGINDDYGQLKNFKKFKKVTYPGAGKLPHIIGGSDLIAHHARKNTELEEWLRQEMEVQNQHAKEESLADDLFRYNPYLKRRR
UniProt O75489, whole entry, looked up: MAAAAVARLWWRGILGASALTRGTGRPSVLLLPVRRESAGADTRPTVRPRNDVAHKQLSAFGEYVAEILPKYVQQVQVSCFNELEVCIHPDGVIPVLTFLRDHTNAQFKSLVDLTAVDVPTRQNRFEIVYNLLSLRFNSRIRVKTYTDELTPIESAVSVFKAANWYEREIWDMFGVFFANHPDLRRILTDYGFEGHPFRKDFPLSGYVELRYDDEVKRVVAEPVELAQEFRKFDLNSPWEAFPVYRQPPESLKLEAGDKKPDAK
UniProt Q9NXR1: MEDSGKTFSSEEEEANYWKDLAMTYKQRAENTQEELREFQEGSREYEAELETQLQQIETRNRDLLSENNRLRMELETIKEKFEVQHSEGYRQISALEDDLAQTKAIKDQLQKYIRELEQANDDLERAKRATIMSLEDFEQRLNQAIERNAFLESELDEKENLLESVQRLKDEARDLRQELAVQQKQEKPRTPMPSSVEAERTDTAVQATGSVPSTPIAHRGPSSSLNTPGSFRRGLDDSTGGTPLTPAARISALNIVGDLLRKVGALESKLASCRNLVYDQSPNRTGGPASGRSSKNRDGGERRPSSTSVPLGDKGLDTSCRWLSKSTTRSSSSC
UniProt Q92542, whole entry, looked up: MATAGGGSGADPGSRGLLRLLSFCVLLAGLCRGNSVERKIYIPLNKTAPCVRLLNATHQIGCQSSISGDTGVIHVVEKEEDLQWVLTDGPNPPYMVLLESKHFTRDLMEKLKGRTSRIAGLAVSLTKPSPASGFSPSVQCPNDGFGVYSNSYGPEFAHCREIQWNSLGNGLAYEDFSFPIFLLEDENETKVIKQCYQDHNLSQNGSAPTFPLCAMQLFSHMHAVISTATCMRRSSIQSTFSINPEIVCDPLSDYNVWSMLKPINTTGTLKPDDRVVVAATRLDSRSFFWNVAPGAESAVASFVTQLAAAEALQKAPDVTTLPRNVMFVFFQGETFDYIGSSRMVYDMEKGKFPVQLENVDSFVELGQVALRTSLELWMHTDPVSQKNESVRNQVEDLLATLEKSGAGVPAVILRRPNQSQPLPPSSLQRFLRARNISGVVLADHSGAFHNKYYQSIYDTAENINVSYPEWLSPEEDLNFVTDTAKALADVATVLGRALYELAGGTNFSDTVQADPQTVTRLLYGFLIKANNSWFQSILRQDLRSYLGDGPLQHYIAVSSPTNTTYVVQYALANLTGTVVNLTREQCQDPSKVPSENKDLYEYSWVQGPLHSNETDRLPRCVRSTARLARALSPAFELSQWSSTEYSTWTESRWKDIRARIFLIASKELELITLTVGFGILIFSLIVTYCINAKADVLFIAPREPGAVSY
UniProt Q9P032: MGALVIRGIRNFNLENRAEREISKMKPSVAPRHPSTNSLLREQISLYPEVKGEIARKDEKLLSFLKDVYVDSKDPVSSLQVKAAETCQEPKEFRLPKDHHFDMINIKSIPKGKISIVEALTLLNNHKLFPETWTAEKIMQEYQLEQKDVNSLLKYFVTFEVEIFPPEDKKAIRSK
UniProt P55209: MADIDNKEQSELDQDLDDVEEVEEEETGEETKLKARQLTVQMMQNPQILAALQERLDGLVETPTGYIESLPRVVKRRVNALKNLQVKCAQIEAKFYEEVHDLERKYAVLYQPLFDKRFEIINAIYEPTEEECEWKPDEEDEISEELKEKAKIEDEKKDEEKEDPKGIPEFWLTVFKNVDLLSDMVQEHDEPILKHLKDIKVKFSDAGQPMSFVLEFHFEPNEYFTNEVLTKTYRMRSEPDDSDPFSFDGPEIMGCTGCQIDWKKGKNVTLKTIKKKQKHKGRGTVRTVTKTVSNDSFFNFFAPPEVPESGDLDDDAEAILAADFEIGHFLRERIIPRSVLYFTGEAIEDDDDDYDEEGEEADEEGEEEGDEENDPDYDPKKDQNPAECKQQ
UniProt Q5TEU4: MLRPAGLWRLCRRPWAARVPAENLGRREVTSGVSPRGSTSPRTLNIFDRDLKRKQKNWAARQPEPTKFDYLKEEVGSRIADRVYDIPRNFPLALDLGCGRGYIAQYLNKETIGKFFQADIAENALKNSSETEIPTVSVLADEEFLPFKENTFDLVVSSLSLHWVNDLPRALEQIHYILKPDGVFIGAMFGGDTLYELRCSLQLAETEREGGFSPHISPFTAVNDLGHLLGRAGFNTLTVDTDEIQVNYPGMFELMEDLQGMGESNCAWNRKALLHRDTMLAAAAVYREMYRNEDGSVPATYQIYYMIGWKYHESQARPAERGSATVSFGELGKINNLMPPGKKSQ

How the values were obtained:
Assay in all cases: log2 fold change, soluble protein after heating vs DMSO (PISA); higher = thermal stabilisation; K562 cells, 10 uM, 30 min; active = over 0.2 and 3.5 SD of the protein, either way, in both replicates (recomputed)
erlotinib = compound: C#Cc1cccc(Nc2ncnc3cc(OCCOC)c(OCCOC)cc23)c1 [erlotinib]
How it was run: (§1)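 Thermal stability values are relative to control samples and come from duplicates. They are expressed as log2 fold changes. For measurement, K562 cells (2×10^6 cells/mL) received 10 μM compound for 30 min, and aliquots were heated for 3 min over 48°C-58°C, pooled, and extracted at 4°C in PBS with 0.5% NP-40. Soluble protein, the supernatant after 21,000xg for 90 min, was quantified by TMTpro 16plex LC-MS/MS with equalised channel sums.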

[1] = compound: C/C(=N\NC(=O)C1=CC(=CC=C1)S(=O)(=O)N2CCOCC2)/C3=C(C=CC(=C3)Cl)O
How it was run: as §1

[2] = compound: C1=CC(=C(C=C1Cl)C2=NC3=NC=CN=C3C(=N2)NC4=CC=NC=C4)F
How it was run: as §1

[3] = compound: C1=CC(=CC=C1C2=NC3=C(N2)C=C(C=C3)C(=O)N)OC4=CC=C(C=C4)Cl
How it was run: as §1

[4] = compound: C1=CC2=C(C=CC(=C2)/C=C\3/C(=O)NC(=NCC4=CC=CS4)S3)N=C1
How it was run: as §1

[5] = compound: C1=CC2=NC=CN=C2C=C1/C=C/3\C(=O)NC(=O)S3
How it was run: as §1

[6] = compound: C1=CC=C(C=C1)C2=NC(=C(N2)C3=CC=NC=C3)C4=CC(=C(C=C4)Cl)O
How it was run: as §1

[7] = compound: C1=CC=C2C(=C1)C3=NNC4=CC=CC(=C43)C2=O
How it was run: as §1

[8] = compound: C1CCN(C1)C(=O)NC2=CC=CC(=C2)NC3=NC=C(C(=N3)NCCC4=CN=CN4)Br
How it was run: as §1

[9] = compound: C1CN(CCC1(CC2=CC=C(C=C2)Cl)N)C3=NC=NC4=C3C=CN4
How it was run: as §1

IRAK-1-4 Inhibitor I = compound: C1COCCN1CCN2C3=CC=CC=C3N=C2NC(=O)C4=CC(=CC=C4)[N+](=O)[O-] [IRAK-1-4 Inhibitor I]
How it was run: as §1

ibrutinib = compound: C=CC(=O)N1CCC[C@@H](n2nc(-c3ccc(Oc4ccccc4)cc3)c3c(N)ncnc32)C1 [ibrutinib]
How it was run: as §1

[10] = compound: CC(=O)c1cnc2ccc(-c3cc(Cl)c(O)c(Cl)c3)nc2c1N[C@H]1CC[C@H](CN(C)C)CC1
How it was run: as §1

ralimetinib = compound: CC(C)(C)Cn1c(N)nc2ccc(-c3[nH]c(C(C)(C)C)nc3-c3ccc(F)cc3)nc21 [ralimetinib]
How it was run: as §1

[11] = compound: CC(C)(O)CC(=O)NCCn1ccc2ncnc(Nc3ccc(Oc4cccc(C(F)(F)F)c4)c(Cl)c3)c21
How it was run: as §1

[12] = compound: CC(C)C1=C2N=C(C=C(N2N=C1)NCC3=CC=CC=C3)NCCCCCCN
How it was run: as §1

[13] = compound: CC(C)C[C@@H](C=O)NC(=O)[C@H](CC(C)C)NC(=O)[C@H](CC(C)C)NC(=O)OCc1ccccc1
How it was run: as §1

pinometostat = compound: CC(C)N(C[C@H]1O[C@@H](n2cnc3c(N)ncnc32)[C@H](O)[C@@H]1O)[C@H]1C[C@@H](CCc2nc3cc(C(C)(C)C)ccc3[nH]2)C1 [pinometostat]
How it was run: as §1

[14] = compound: CC1=C(C2=C(C=C1)C(=O)C3=CC=CC=C3N2CCCN)C
How it was run: as §1

[15] = compound: CC1=C(C(CC(=O)N1)C2=CC=C(C=C2)C(F)(F)F)C(=O)NC3=C(C=C4C(=C3)C=NN4)F
How it was run: as §1

Measured: log2 fold change

NBN (UniProt O60934)
inactive: erlotinib 0.064 | [1] 0.087 | [2] 0.06 | [3] 0.033 | [4] 0.005 | [5] 0.028 | [6] 0.012 | [7] 0.002 | [8] -0.029 | [9] 0.037 | IRAK-1-4 Inhibitor I -0.009 | ibrutinib -0.008 | [10] -0.147 | ralimetinib -0.028 | [11] -0.062 | [12] -0.025 | [13] 0.007 | pinometostat 0.009 | [14] -0.02

NDUFS3 (UniProt O75489)
inactive: erlotinib 0.017 | [1] 0.003 | [2] 0.031 | [3] 0.038 | [4] 0.016 | [5] 0.021 | [6] 0.08 | [7] 0.005 | [8] -0.057 | [9] 0.012 | IRAK-1-4 Inhibitor I 0.141 | ibrutinib -0.012 | [10] -0.035 | ralimetinib 0.018 | [11] -0.053 | [12] -0.065 | [13] 0.023 | pinometostat 0.018 | [15] 0.014 | [14] 0.011

NDE1 isoform 1 (UniProt Q9NXR1)
inactive: erlotinib -0.01 | [1] -0.01 | [2] 0.005 | [3] 0.001 | [4] 0.04 | [5] 0.076 | [6] -0.016 | [7] 0.023 | [8] -0.004 | [9] 0.012 | IRAK-1-4 Inhibitor I 0.025 | ibrutinib -0.003 | [10] -0.031 | ralimetinib -0.031 | [11] -0.01 | [12] 0.003 | [13] 0.072 | pinometostat -0.012 | [15] 0.04 | [14] 0.007

NDUFB10 (UniProt O96000)
inactive: erlotinib -0.009 | [1] -0.067 | [2] 0.018 | [3] 0.03 | [4] 0.06 | [5] 0.025 | [6] -0.038 | [7] -0.021 | [8] 0.026 | [9] 0.045 | IRAK-1-4 Inhibitor I 0.015 | ibrutinib 0.009 | [10] -0.001 | ralimetinib -0.057 | [11] -0.018 | [12] -0.11 | [13] 0.023 | pinometostat -0.018 | [14] 0.009

NCSTN (UniProt Q92542)
inactive: erlotinib 0.04 | [1] -0.031 | [2] -0.02 | [3] -0.001 | [4] 0.016 | [5] 0.079 | [6] 0.019 | [7] 0.008 | [8] 0.014 | [9] 0.013 | IRAK-1-4 Inhibitor I 0.022 | ibrutinib -0.004 | [10] -0.086 | ralimetinib -0.014 | [11] -0.014 | [12] 0.017 | [13] -0.03 | pinometostat -0.068 | [15] 0.002 | [14] 0.077

NDUFAF4 (UniProt Q9P032)
inactive: erlotinib 0.011 | [1] 0.006 | [2] 0.051 | [3] 0.01 | [4] 0.03 | [5] 0.019 | [6] 0.009 | [7] 0.002 | [8] 0.027 | [9] 0.019 | IRAK-1-4 Inhibitor I 0.036 | ibrutinib -0.005 | [10] -0.027 | ralimetinib -0.016 | [11] -0.035 | [12] -0.153 | [13] -0.012 | pinometostat 0 | [15] 0.008 | [14] 0.031

NAP1L1 (UniProt P55209)
inactive: erlotinib -0.021 | [1] 0.006 | [2] 0.036 | [3] 0.035 | [4] -0.048 | [5] 0.066 | [6] 0.026 | [7] -0.018 | [8] -0.02 | [9] 0.07 | IRAK-1-4 Inhibitor I 0.04 | ibrutinib -0.041 | [10] -0.012 | ralimetinib -0.003 | [11] 0.021 | [12] 0.017 | [13] 0.021 | pinometostat -0.029 | [14] 0.004

NDUFAF5 (UniProt Q5TEU4)
inactive: erlotinib 0.007 | [1] -0.069 | [2] 0.024 | [3] 0.02 | [4] 0.013 | [5] 0.009 | [6] -0.118 | [7] -0.009 | [8] 0.022 | [9] 0.07 | IRAK-1-4 Inhibitor I 0.007 | ibrutinib 0.119 | [10] 0.009 | ralimetinib -0.217 | [11] -0.044 | [12] 0.031 | [13] -0.026 | pinometostat 0.005 | [15] 0.011 | [14] -0.04
